According to patent US8586579B2, “Anellated pyridine compounds” (Hoffmann-La Roche Inc., priority 2010, dated 2013):

melting point: 201 °C
Structure (SMILES): Cc1ccc(C(=O)N[C@H]2CC[C@H](CCN3CCN(c4nccc5c4CCO5)CC3)CC2)cn1 [Example 116, trans-N-(4-{2-[4-(2,3-Dihydro-furo[3,2-c]pyridin-4-yl)-piperazin-1-yl]-ethyl}-cyclohexyl)-6-methyl-nicotinamide]
